Molecules are shown by their SMILES. Like-named read-outs stand apart in the source and are kept apart here. Some values come without a unit; they compare only within their column.

These results are taken from article PMC10331583, “Control of fibrosis with enhanced safety via asymmetric inhibition of prolyl‐tRNA synthetase 1” (EMBO Molecular Medicine, 2023).

In series [1] the test system is WI‐26 VA4 cells. The experiment in a line: Puromycin incorporation assay. The format is cell-based, human. The settings on record: for puromycin IC50/collagen IC50 / Relative (puromycin IC50)/(collagen IC50): Fig 5G; for Hill slope of puromycin incorporation / Relative slope of puromycin incorporation: Fig 5J; for Relative (puromycin IC50)/(collagen IC50) / Relative slope of puromycin incorporation: relative to HF. How it is done: After being rinsed with cold PBS twice, the cells were collected and resuspended in 200 μl of the carbonate bicarbonate buffer (Sigma Aldrich, C3041‐50CAP) with protease inhibitor. The cell lysates were obtained by sonication and centrifugation at 20,000 g for 15 min at 4°C. After protein quantification using a Pierce™ BCA Protein Assay Kit (Thermo Fisher Scientific, 23225), 400 ng of the proteins was coated to ELISA plates for 18 h at 4°C. […] The plates were rinsed with the washing buffer for three times after each antibody incubation step. […] The amount of puromycin incorporated in proteins was determined by measuring the absorbance at 450 nm (reference wavelength at 620 nm). Experimental values marked in red with strikethrough text in the Figure Source Data file were excluded from the analysis. These values were determined by considering the values of biological and technical replicates under the same condition, as well as the values at the former and later chemical concentrations.

In a further series the test system is T1, PARS1.
T1 construct: glutamyl‐prolyl‐tRNA synthetase 1 (EPRS1), which comprises glutamyl‐tRNA synthetase 1 (EARS1), three repeats of WHEP domain, and PARS1; made in house; host or cells: Escherichia coli
The series is described as follows: Co‐crystal structures of PARS1 with compounds and ATP (binding mode). The arrangement: species or system human. The settings on record: co‐crystal with ATP (HF: PDB 4HVC with ANP).

For series [2], the system named is WI‐26 VA4 cells. The series is described as follows: CellTiter‐Glo assay (cytotoxicity). The settings on record: log(inhibitor) vs. response, variable slope (four parameters).
Series [3] deals with WI‐26 VA4 cells. The series is described as follows: Collagen ELISA (secreted pro‐collagen I). The settings on record: Fig 5H; for Relative slope of collagen level: relative to HF. (ELISA stands for enzyme-linked immunosorbent assay.)
The subject of series [4] is TNT Quick Coupled Transcription/Translation System (luciferase synthesis). The format is biochemical. The following applies: for luciferase IC50/collagen IC50 / Relative (luciferase IC50)/(collagen IC50): Fig 5F; for Relative (luciferase IC50)/(collagen IC50) / Relative slope of luciferase activity: relative to HF.
For series [5], the system named is WI‐26 VA4 cells stably expressing PARS1 FA/EA/RL mutant. The series is described as follows: Collagen ELISA in cells stably expressing PARS1 mutant.
The subject of series [6] is WI‐26 VA4 cells stably expressing EV (empty vector). The series is described as follows: Collagen ELISA in cells stably expressing EV. The following applies: for Hill slope (collagen): EV cells.
Where [7] appears, read: log(inhibitor) vs. response, variable slope (four parameters).

`O=C(C[C@H]1NCCC[C@@H]1O)Cn1cnc2ccc(-c3cccc(F)c3)cc21` [DWN11251]: in the series with WI‐26 VA4 cells [1], the “puromycin IC50/collagen IC50” value amounted to 16.50, the “Hill slope of puromycin incorporation” value is -1.784, the “Relative (puromycin IC50)/(collagen IC50)” value came out at 1.26 and the “Relative slope of puromycin incorporation” value was -0.64 a.u. The “binding mode to PARS1 protomers” value with PARS1 is “asymmetrically”. In the series with WI‐26 VA4 cells [2], the “CellTiter-Glo HillSlope (best-fit value)” value is recorded as -1.095. In the series on WI‐26 VA4 cells [3], the “Hill slope of Collagen level” value is listed as -1.623 and the “Relative slope of collagen level” value was -0.74 a.u. In addition, in series [4], the “luciferase IC50/collagen IC50” value is recorded as 24.71 and the “Relative (luciferase IC50)/(collagen IC50)” value turned out to be 2.31. For the same compound, in series [4] (Fig 5I), the “Hill slope of luciferase activity” value was -1.585 and the “Relative slope of luciferase activity” value is given as -0.40 a.u. The “TNT-luciferase HillSlope (best-fit value)” value (from here on “TNT-luciferase HillSlope”) in series [4] (setting [7]) was -1.585.
`Cc1c(Cl)ccc2c1ncn2CC(=O)C[C@H]1NCCC[C@@H]1O` [DWN11748]: in the series on WI‐26 VA4 cells [1], the “puromycin IC50/collagen IC50” value was found to be 10.01, the “Hill slope of puromycin incorporation” value is on record as -2.365, the “Relative (puromycin IC50)/(collagen IC50)” value was found to be 0.76 and the “Relative slope of puromycin incorporation” value is recorded as -0.85 a.u. Moreover, the “binding mode to PARS1 protomers” value in the series with PARS1 is “symmetrically”. In the series with WI‐26 VA4 cells [2], the “CellTiter-Glo HillSlope (best-fit value)” value is recorded as -0.7897. In the series with WI‐26 VA4 cells [3], the “Hill slope of Collagen level” value was -2.011 and the “Relative slope of collagen level” value is given as -0.92 a.u. In series [4], the “luciferase IC50/collagen IC50” value is 9.55 and the “Relative (luciferase IC50)/(collagen IC50)” value is listed as 0.89. In series [4] (Fig 5I), the “Hill slope of luciferase activity” value is -2.23 and the “Relative slope of luciferase activity” value was -0.56 a.u. For the same compound, the “TNT-luciferase HillSlope” value in series [4] (setting [7]) is reported as -2.23.
With `Cc1c(Br)cnc2c1ncn2CC(=O)C[C@H]1NCCC[C@@H]1O` [DWN11761], in the series on WI‐26 VA4 cells [1], the “puromycin IC50/collagen IC50” value is given as 10.82, the “Hill slope of puromycin incorporation” value is on record as -3.124, the “Relative (puromycin IC50)/(collagen IC50)” value is 0.82 and the “Relative slope of puromycin incorporation” value was -1.12 a.u. Besides, the “binding mode to PARS1 protomers” value with PARS1 was “symmetrically”. The “CellTiter-Glo HillSlope (best-fit value)” value in the series with WI‐26 VA4 cells [2] is given as -0.577. In the series with WI‐26 VA4 cells [3], the “Hill slope of Collagen level” value is -2.337 and the “Relative slope of collagen level” value is given as -1.07 a.u. In series [4], the “luciferase IC50/collagen IC50” value was determined as 11.08 and the “Relative (luciferase IC50)/(collagen IC50)” value is on record as 1.04. Further, in series [4] (Fig 5I), the “Hill slope of luciferase activity” value is recorded as -2.414 and the “Relative slope of luciferase activity” value is on record as -0.60 a.u. The “TNT-luciferase HillSlope” value in series [4] (setting [7]) was -2.414.
Take `O[C@H]1CCCN[C@@H]1CCCn1cnc2c(Cl)c(Cl)ccc21` [DWN12088]: in the series with WI‐26 VA4 cells [1], the “puromycin IC50/collagen IC50” value was found to be 28.10, the “Hill slope of puromycin incorporation” value is listed as -1.616, the “Relative (puromycin IC50)/(collagen IC50)” value amounted to 2.14 and the “Relative slope of puromycin incorporation” value was -0.58 a.u. Further, the “Hill slope (collagen)” value in series [5] is recorded as -1.331. Moreover, in series [5] (relative to EV), the “Relative slope (collagen)” value is -1.540. Further, the “binding mode to PARS1 protomers” value in the series with PARS1 is on record as “asymmetrically”. Further, the “CellTiter-Glo HillSlope (best-fit value)” value in the series with WI‐26 VA4 cells [2] is -0.9531. Also, in the series with WI‐26 VA4 cells [3], the “Hill slope of Collagen level” value is -1.329 and the “Relative slope of collagen level” value is -0.61 a.u. Besides, in series [4], the “luciferase IC50/collagen IC50” value came out at 24.90 and the “Relative (luciferase IC50)/(collagen IC50)” value was 2.33. In series [4] (Fig 5I), the “Hill slope of luciferase activity” value is on record as -1.54 and the “Relative slope of luciferase activity” value is listed as -0.38 a.u. Besides, in series [4] (setting [7]), the “TNT-luciferase HillSlope” value was -1.54. Besides, the “Hill slope (collagen)” value in series [6] is recorded as -0.8641. In addition, the “Relative slope (collagen)” value in series [6] (EV cells (reference)) is listed as -1.
For `O=C(CC1NCCCC1O)Cn1cnc2cc(Br)c(Cl)cc2c1=O` (stereo not shown) [HF, Halofuginone, reference compound], the “Hill slope of puromycin incorporation” value in the series with WI‐26 VA4 cells [1] was -2.795. Moreover, the “Hill slope (collagen)” value in series [5] was -1.829. Further, in the series with PARS1, the “binding mode to PARS1 protomers” value is listed as “symmetrically”. Also, in the series with WI‐26 VA4 cells [2], the “CellTiter-Glo HillSlope (best-fit value)” value is listed as -1.263. Also, the “Hill slope of Collagen level” value in the series on WI‐26 VA4 cells [3] was -2.183. In series [4], the “Hill slope of luciferase activity” value is -4.003 and the “TNT-luciferase HillSlope” value was -4.003. Moreover, the “Hill slope (collagen)” value in series [6] was -1.549.
